These are yes or no findings as the source states them, for the method shown. In cells and extracts the contact can be indirect. Some entries that bind do so weakly or less than the wild type.
Target: Dopamine D1 receptor (rat (endogenous in spinal cord)) (UniProt P18901)
Experiment: co-IP; D1DR antibody or D2DR antibody (10 μg) coupled to NHS-activated magnetic beads; lysate of rat L4–L6 spinal cord in RIPA buffer (10 mM NaF, 30 mM HEPES, 150 mM NaCl, 1% Triton, 0.01% SDS), 4 h at RT; Western blot; CCI rats, also after intrathecal SCH-23390, L-741,626 (20 μg/20 μL) or l-CDL (15 μg/20 μL)

By UniProt entry, the sequences of proteins in these tests, tags left out.
UniProt P18901: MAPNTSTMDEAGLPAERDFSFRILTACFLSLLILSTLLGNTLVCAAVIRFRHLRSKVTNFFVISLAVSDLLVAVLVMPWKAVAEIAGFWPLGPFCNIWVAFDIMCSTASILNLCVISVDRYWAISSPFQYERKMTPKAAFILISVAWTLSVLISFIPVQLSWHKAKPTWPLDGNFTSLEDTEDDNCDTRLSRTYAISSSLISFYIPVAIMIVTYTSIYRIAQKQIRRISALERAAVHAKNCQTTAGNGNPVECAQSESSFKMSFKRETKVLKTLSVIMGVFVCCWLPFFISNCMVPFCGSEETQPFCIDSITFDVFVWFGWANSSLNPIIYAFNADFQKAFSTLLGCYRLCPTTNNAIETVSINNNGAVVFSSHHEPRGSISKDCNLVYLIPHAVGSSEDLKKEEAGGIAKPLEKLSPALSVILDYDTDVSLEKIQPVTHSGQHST

binding: binds
Substance: Dopamine D2 receptor (from UniProt P61169-1 1-444)

Source: article PMC8080784
